For some assays here: Shown are results outside the selection of hits, which stands elsewhere. Results filed as inconclusive are left out. This is a selection; strong and weak results do not stand in their true shares. The source made the active and inactive calls. The calls were made as follows, unless noted: active = hit-call score of the fitted dose curve at least 0.9, where 1 is the maximum; inconclusive = response in the unintended direction; inactive = score below 0.9.

Amino acid sequences for entries named in this document (tags omitted).
UniProt P04637, whole entry, looked up: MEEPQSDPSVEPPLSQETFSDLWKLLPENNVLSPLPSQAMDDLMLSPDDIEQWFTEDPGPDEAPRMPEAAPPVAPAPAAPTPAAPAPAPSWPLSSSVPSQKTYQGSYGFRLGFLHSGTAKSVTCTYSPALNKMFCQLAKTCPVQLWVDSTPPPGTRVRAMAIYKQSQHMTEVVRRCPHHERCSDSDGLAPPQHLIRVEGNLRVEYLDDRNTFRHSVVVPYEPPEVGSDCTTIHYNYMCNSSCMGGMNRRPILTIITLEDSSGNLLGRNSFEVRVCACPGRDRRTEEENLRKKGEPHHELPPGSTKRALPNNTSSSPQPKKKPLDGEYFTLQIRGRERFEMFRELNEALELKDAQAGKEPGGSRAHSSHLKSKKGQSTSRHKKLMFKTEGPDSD

Assay [1] is described as follows: ACEA_AR_agonist_AUC_viability: ACEA Biosciences xCELLigence Real-Time Cell Analysis on Androgen Receptor Agonism for Viability (AID 2283775). The essentials: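 Real-time impedance tracking of 22Rv1 growth, readings every 5 min for 5 h then hourly; area-under-curve viability endpoint at 80 hours, relative to DMSO. Compounds at eight concentrations, 1:4 steps, top 100 uM, n = 2.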

A short description of assay [2]: CCTE_Mundy_HCI_Cortical_Synap_Neur_Matur_NeuriteLength: CCTE's Synaptogenesis and Neurite Maturation Assay in rat cortical cells for Neurite Length, Mundy Lab (AID 2284214; active = hit-call score of the fitted dose curve at least 0.9, where 1 is the maximum; inactive = score below 0.9). The essentials: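 Rat cortical neurons, AraC at DIV 5; compound + media change DIV 7, end DIV 12 (288.33 h). Fix, MAP2/synaptophysin/Hoechst immunostain, automated HCI of neurite length vs DMSO.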

Assay [3] can be described thus: IUF_NPC2b_neuronal_migration_120hr: Leibniz Research Institute for Environmental Medicine (IUF) 120-hour Neural Progenitor Cell Migration Assay for Neuron Migration (NPC2b) (AID 2284300; active = hit-call score of the fitted dose curve at least 0.9, where 1 is the maximum; inactive = score below 0.9). The procedure, abridged:
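Read-out is mean distance from sphere edge to each TUBB3-positive neuron at 120 h, expressed relative to radial glia migration distance and to DMSO baseline. Single 0.3 mm human NPC spheres differentiated on laminin under continuous compound exposure.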

For assay [4], the target named is Cellular tumor antigen p53 (Homo sapiens) (UniProt P04637). The assay is described as follows: TOX21_p53_BLA_p2_ratio: Tox21 HCT-116 p53 Agonism Beta-lactamase Assay, Ratio, Phase 2 (AID 2283592). The essentials:
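HCT116 p53-bla; 4000 cells/well; 5 h pre-incubation; cpd in DMSO, 217-fold dilution; 16 h 37C/5% CO2; CCF4-AM 2 h RT; Ex 405, Em 460/530 ratio; DMSO = baseline; positive fitting direction.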

Assay [5] is described as follows: ACEA_AR_antagonist_AUC_viability: ACEA Biosciences xCELLigence Real-Time Cell Analysis on Androgen Receptor Antagonism for Viability (AID 2283776).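 Also: 22Rv1 human prostate cancer cells growing on impedance electrode plates; hits lower the growth signal relative to DMSO meaning cytotoxicity.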 The essentials: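 Impedance read-out (RT-CES): area under growth curve at 80 h post-dose, loss of signal scored vs DMSO baseline. 22Rv1 cells; 8-pt 1:4 series, top 100 uM final, ≤0.5% DMSO; biological duplicate.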
A short description of assay [6]: IUF_NPC4_neurite_length_120hr: Leibniz Research Institute for Environmental Medicine (IUF) 120-hour Neuronal Morphology Assay for Neurite Length (NPC4) (AID 2284302; active = hit-call score of the fitted dose curve at least 0.9, where 1 is the maximum; inactive = score below 0.9). The procedure, abridged:
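Read-out is mean neurite length in µm of TUBB3-positive neurons, skeletonized from high-content fluorescence images after 120 h. Single 0.3 mm primary human neural progenitor spheres differentiated on poly-D-lysine/laminin under continuous compound exposure; DMSO was baseline.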

Assay [7] deals with Cellular tumor antigen p53 (Homo sapiens) (UniProt P04637). Briefly: TOX21_p53_BLA_p4_ratio: Tox21 HCT-116 p53 Agonism Beta-lactamase Assay, Ratio, Phase 4 (AID 2283601). The procedure, abridged:
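Signal is the blue/green (460nm/530nm) ratio of cleaved versus uncleaved CCF4-AM substrate, read after 2 h substrate loading. Cells were HCT116 carrying the p53-responsive beta-lactamase reporter, dosed 16 h at 37C, 5% CO2; CellTiter-Glo measured in parallel.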

Assay [8] is described as follows: CCTE_Harrill_HTTr_CellCount_MCF7: CCTE's Cell Proliferation Assessment for the High-Throughput Transcriptomics (HTTr) Platform, Harrill Lab (AID 2284012).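 Also: count of Hoechst-stained nuclei per well by high-content imaging in MCF-7 cells; cells exposed to compound for six hours; intended direction is loss of nuclei count meaning fewer cells.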 The essentials:
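Chemicals in eight-point dilution series are added to MCF-7 cells for six hours, nuclei are stained with Hoechst and imaged, and per-well nuclei counts are fitted in both directions relative to DMSO controls.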

Assay [9] can be described thus: CCTE_Mundy_HCI_iCellGluta_NOG_NeuriteLength: CCTE's Neurite Outgrowth Assay in iCellGluta cells for Neurite Length, Mundy Lab (AID 2284318). The essentials:
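Automated high-content imaging of betaIII-tubulin (Alexa Fluor-488) and Hoechst-stained cells gave neurite length, normalized to the DMSO baseline.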

Assay [10] can be described thus: Tanguay_ZF_120hpf_MORT_legacy: (Legacy) Oregon State University Tanguay Lab 120 Hour Post-fertilization zebrafish Assay for Mortality (AID 2283633).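 As to AC50: fitted as increase in binary mortality versus DMSO negative control.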 The procedure, abridged:
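5D WT zebrafish, chorion removed 4 hpf; 1 embryo/well from 6 hpf; static exposure to 120 hpf, 28C, dark, sealed. Final DMSO 0.64%. Readout: binary mortality, brightfield, 24 + 120 hpf; DMSO as negative control.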

The nature of assay [11]: CCTE_Shafer_MEA_dev_bursting_electrodes_number: CCTE's Neural Network Formation Assay for Number of Bursting Electrodes, Shafer Lab (AID 2284043).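 Also: potency is for loss of bursting electrodes relative to DMSO.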 The procedure, abridged:
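Read-out is the per-well number of electrodes bursting at least once every 2 minutes, recorded on days 5, 7, 9 and 12 and collapsed by trapezoidal area under the curve. Cultures were primary rat cortical neurons on MEA plates, treated continuously from plating.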

Assay [12] can be described thus: CCTE_Shafer_MEA_dev_LDH: CCTE's Lactate Dehydrogenase Assay for Cytotoxicity in the Neural Network Formation Assay, Shafer Lab (AID 2284068).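 Also: exposure for twelve days from plating with re-dosing on DIV 5 and 9.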 The essentials: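 Primary rat cortical neurons were cultured on PEI-coated MEA plates and exposed from plating through day 12, with compound renewed at medium changes on DIV 5 and 9. LDH activity was read spectrophotometrically; loss of signal versus DMSO indicates reduced viability.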

Assay [13] in a line: Tanguay_ZF_120hpf_AXIS_legacy: (Legacy) Oregon State University Tanguay Lab 120 Hour Post-fertilization zebrafish Assay for Body Axis Malformation (AID 2283635). The essentials: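 Chorion is removed with pronase at 4 hpf, then single 6 hpf embryos are dosed (final DMSO 0.64%) and held statically at 28C in sealed, foil-covered plates. At 120 hpf body axis malformation is recorded as present or absent.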

Assay [14] can be described thus: Tanguay_ZF_120hpf_JAW_legacy: (Legacy) Oregon State University Tanguay Lab 120 Hour Post-fertilization zebrafish Assay for Jaw Malformation (AID 2283638). The procedure, abridged: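 Steps: dechorionate 4 hpf embryos (pronase); plate 1/well at 6 hpf; add test chemical, 0.64% DMSO final; seal, cover, hold at 28C statically to 120 hpf; score jaw defect presence/absence microscopically. Dead embryos not scored.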

Assay [15] is described as follows: Tanguay_ZF_120hpf_TR_legacy: (Legacy) Oregon State University Tanguay Lab 120 Hour Post-fertilization zebrafish Assay for Touch Response (AID 2283667).
Assay [16] has as its system SRY-box transcription factor 2 (SOX2) Protein Expression, Deisenroth Lab, SOX2 (gene 6657). The assay is described as follows: CCTE_Deisenroth_DEVTOX-GLR_Endo_SOX2: CCTE's DevTox GLR-Endo Assay Evaluation of SRY-box transcription factor 2 (SOX2) Protein Expression, Deisenroth Lab (AID 2284412). The procedure, abridged:
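RUES2-GLR human pluripotent cells were seeded 24 h, then differentiated 48 h with two chemical exposures 24 h apart. Cells were fixed, nuclei stained and imaged by high-content microscopy. Endpoint is %SOX2+ cells over cell count, minus 0.2% DMSO control; 10-point series 1 nM–200 uM.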

Consider `C=CN1CCCC1=O`, for which the compound was classed as inactive in [1].
In the case of `C[C@@H]1C[C@H]2[C@@H]3CCC4=CC(=O)C=C[C@]4(C)[C@@]3(F)[C@@H](O)C[C@]2(C)[C@@]1(O)C(=O)CO`, the result in [2] and in assay [3] was inactive.
For the compound `CC(C)Nc1nc(N)nc(Cl)n1`, the result in assay [4], in [1] and in assay [5] was inactive.
With `COCCOCCOCCO`, the result in [4] and in assay [6] was inactive.
Consider `CCCc1nc(C(C)(C)O)c(C(=O)OCc2oc(=O)oc2C)n1Cc1ccc(-c2ccccc2-c2nn[nH]n2)cc1`, for which the outcome in assay [7] was inactive.
In the case of `CC(CN1c2ccccc2Sc2ccccc21)N(C)C` (stereo not drawn), the compound was classed as inactive in assay [8].
For `CCCCCCCCCCC(CO)CCCCCCCC` (stereo not drawn), in assay [5], the compound was called inactive.
As a reminder, the AC50 is the concentration at which the activity in the assay is half-maximal. In the case of `Cc1c(O)cccc1C(=O)N[C@@H](CSc1ccccc1)[C@H](O)CN1C[C@H]2CCCC[C@H]2C[C@H]1C(=O)NC(C)(C)C`, the AC50 in assay [9] was active: 22.7 µM.
Regarding `CC(=O)CCC(C)C`, the call in assay [5] was inactive.
`C=CC(=O)NC(C)(C)CS(=O)(=O)O`: the outcome in [7] and in assay [8] was inactive.
As for `CCc1nn(C2CCCCC2)c2cc(C3(C#N)CCC(C(=O)O)CC3)ccc12` (stereo not drawn), in assay [10], the AC50 is active: 10.7 µM.
In the case of `CC[C@H](C)C(=O)O[C@H]1C[C@H](O)C=C2C=C[C@H](C)[C@H](CC[C@@H](O)C[C@@H](O)CC(=O)O)[C@H]21`, the compound was classed as inactive in assay [10]. Besides, the AC50 in [11] is active: 1.87 µM; in assay [12] it was active: 0.319 µM.
Consider `O=C(O)CCCCC(=O)O`, for which the outcome in [13] was inactive.
Regarding `CC1=C(/C=C/C(C)=C/C=C/C(C)=C/CO)C(C)(C)CCC1`, the result in assay [14] and in assay [15] was inactive. The AC50 in [16] is active: 74.8 µM.

The record behind these values is PubChem BioAssay (EPA / NIEHS).
